Values quoted from earlier work as cited in US20020102280A1, “Solvent systems for pharmaceutical agents” (priority 2000, published 2002).

Conditions: cited from earlier work

In the case of `CC(=O)O[C@H]1C(=O)[C@@]2(C)[C@H]([C@H](OC(=O)c3ccccc3)[C@]3(O)C[C@H](OC(=O)[C@H](O)[C@@H](NC(=O)c4ccccc4)c4ccccc4)C(C)=C1C3(C)C)[C@]1(OC(C)=O)CO[C@@H]1C[C@@H]2O` [Paclitaxel, paclitaxel], the “solubility in water (in words)” value is given as “exceedingly low solubility in water”.
